Paper PMC7883825

Target: FLAG-tagged RING finger protein 219 (RNF219)
Experiment: affinity purification with mass spectrometry; FLAG affinity purification of FLAG-RNF219 from nuclear and cytoplasmic S100 extracts of the HEK-293 FIT stable line, doxycycline 48 h, with Benzonase; SDS-PAGE, silver staining, mass spectrometry

B1: CNOT4 (protein, UniProt O95628 1-575)
chain: MSRSPDAKEDPVECPLCMEPLEIDDINFFPCTCGYQICRFCWHRIRTDENGLCPACRKPYPEDPAVYKPLSQEELQRIKNEKKQKQNERKQKISENRKHLASVRVVQKNLVFVVGLSQRLADPEVLKRPEYFGKFGKIHKVVINNSTSYAGSQGPSASAYVTYIRSEDALRAIQCVNNVVVDGRTLKASLGTTKYCSYFLKNMQCPKPDCMYLHELGDEAASFTKEEMQAGKHQEYEQKLLQELYKLNPNFLQLSTGSVDKNKNKVTPLQRYDTPIDKPSDSLSIGNGDNSQQISNSDTPSPPPGLSKSNPVIPISSSNHSARSPFEGAVTESQSLFSDNFRHPNPIPSGLPPFPSSPQTSSDWPTAPEPQSLFTSETIPVSSSTDWQAAFGFGSSKQPEDDLGFDPFDVTRKALADLIEKELSVQDQPSLSPTSLQNSSSHTTTAKGPGSGFLHPAAATNANSLNSTFSVLPQRFPQFQQHRAVYNSFSFPGQAARYPWMAFPRNSIMHLNHTANPTSNSNFLDLNLPPQHNTGLGGIPVAGEEEVKVSTMPLSTSSHSLQQGQQPTSLHTTVA
Q: With B1 as the binder, how does the binding read?
A: The binding was “no binding”.

Results are given in words; binding and its absence hold for the method and conditions named. Binding seen in cells or lysates may run through a third protein. These calls come from enrichment with a bait or labelling near it, and not all partners need be listed. No binding means not detected with the bait.
